In paper doi:10.1101/2020.08.22.262386:
Results are given in words; binding and its absence hold for the method and conditions named. Some entries that bind do so weakly or less than the wild type.

Protein sequences, listed by entry. Tags and fused reporters are not part of them.
UniProt Q14145: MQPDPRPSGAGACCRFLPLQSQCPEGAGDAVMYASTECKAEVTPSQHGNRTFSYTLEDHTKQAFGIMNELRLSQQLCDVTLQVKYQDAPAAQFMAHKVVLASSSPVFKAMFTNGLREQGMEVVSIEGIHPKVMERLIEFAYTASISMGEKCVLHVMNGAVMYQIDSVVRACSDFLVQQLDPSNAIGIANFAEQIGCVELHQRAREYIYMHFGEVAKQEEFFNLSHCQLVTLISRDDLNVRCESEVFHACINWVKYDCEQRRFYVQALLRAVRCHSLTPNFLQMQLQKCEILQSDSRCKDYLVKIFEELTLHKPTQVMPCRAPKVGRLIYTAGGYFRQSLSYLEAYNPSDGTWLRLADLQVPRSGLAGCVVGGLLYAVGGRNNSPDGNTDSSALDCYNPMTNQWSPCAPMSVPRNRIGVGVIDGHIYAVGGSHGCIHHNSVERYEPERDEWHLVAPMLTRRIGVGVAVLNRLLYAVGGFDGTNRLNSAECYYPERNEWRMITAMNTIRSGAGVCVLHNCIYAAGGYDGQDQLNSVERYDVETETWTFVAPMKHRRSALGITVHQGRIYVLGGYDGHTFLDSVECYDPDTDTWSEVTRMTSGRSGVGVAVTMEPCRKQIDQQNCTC

Molecular target: T1, DPP3 (human) (UniProt Q9NY33)
T1 sequence: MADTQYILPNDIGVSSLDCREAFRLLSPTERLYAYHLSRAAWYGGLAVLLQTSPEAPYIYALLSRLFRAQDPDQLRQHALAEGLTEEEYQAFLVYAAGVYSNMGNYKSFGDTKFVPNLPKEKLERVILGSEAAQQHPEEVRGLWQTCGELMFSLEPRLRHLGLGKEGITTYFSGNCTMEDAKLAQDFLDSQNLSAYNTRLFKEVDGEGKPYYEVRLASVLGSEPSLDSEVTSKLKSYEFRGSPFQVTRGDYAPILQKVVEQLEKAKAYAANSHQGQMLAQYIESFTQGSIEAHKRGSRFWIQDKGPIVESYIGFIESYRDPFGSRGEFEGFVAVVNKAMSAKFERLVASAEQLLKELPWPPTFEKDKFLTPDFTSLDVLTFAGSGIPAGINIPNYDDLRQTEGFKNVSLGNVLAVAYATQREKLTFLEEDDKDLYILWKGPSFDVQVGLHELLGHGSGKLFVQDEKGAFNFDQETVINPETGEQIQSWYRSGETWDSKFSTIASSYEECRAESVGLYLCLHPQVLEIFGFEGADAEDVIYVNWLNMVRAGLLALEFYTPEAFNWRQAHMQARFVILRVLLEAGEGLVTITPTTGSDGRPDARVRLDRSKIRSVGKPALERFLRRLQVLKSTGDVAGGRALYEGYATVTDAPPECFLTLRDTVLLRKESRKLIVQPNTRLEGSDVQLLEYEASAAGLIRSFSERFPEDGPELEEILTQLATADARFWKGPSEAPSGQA
Assay: two-hybrid

binding: binds
Substance: KEAP1 (from UniProt Q14145 1-624)
